# Test results as given in paper PMC7819943, “Rice protein-binding microarrays: a tool to detect cis-acting elements near promoter regions in rice”.
# By UniProt entry, the sequences of proteins in these tests, tags left out.
# UniProt Q0JBA9, entry or part of it: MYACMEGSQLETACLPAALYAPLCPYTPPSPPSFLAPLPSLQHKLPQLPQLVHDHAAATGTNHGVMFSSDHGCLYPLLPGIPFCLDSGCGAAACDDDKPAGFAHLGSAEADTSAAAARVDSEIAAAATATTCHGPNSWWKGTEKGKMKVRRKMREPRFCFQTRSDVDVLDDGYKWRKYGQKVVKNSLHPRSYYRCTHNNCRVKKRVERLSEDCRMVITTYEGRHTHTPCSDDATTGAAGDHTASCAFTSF
# Some of the results follow.
# Molecular target: OsWRKY34 (Oryza sativa, UniProt Q0JBA9 1-250)
# Test: protein-binding microarray (RPBM); PBS, 2% BSA, 51.3 ng/ul salmon testes DNA, 50 uM zinc acetate, 200 nM TF, 25 C, 1 h; high values mean tight binding
# Conditions: protein: recombinant; tags: N-terminal polyhistidine and DsRed monomer fusion (pET32a); label: CyDye5-dUTP incorporated in the synthesized complementary strand; 3' TTTTT single-stranded linker to array surface; dsDNA, one strand shown
# Summary of the method: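 Polyhistidine-tagged DsRed fusions of transcription factors, joined at the N-terminus, were expressed in E. coli BL21-CodonPlus and isolated on Ni–NTA. They were incubated at 200 nM for 1 h at 25 °C on a custom Agilent array, double-stranded and BSA-blocked, in PBS with 2% BSA, salmon testes DNA and 50 µM zinc acetate. The binding signal is per-feature fluorescence intensity (arbitrary units) read on an Axon 4000B scanner after washing.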
row,Sequence,binding signal
1,TGCTTCTTGCTAGCTTCAGCTCCACCGACACCGATCGTTACGGAGTCACCTAGTGCAG,8390 fluorescence intensity (a.u.)
2,TCCGCTTCTCTCTCTCGTCGCTCTCTCCGTCTTTACCGTCCGGAGTCACCTAGTGCAG,9130 fluorescence intensity (a.u.)
3,TATTTGCGTTATATTTCCATATAATACTGATTAATCTTATCGGAGTCACCTAGTGCAG,8280 fluorescence intensity (a.u.)
4,AGCTGGTTTTGCCAATTTTATTTGCTTGTCATTGGCTCTGCGGAGTCACCTAGTGCAG,8320 fluorescence intensity (a.u.)
5,ATGCGCCACTTTGTTTCAAAAGCTTGCATGTAAACACTTTCGGAGTCACCTAGTGCAG,8230 fluorescence intensity (a.u.)
6,ACTACATCTTTTGACATTTTTTGCTGTGATTCCTGTGTTACGGAGTCACCTAGTGCAG,11100 fluorescence intensity (a.u.)
7,GTTGGATCACTTTATTCCTGTTTTCTCGATCAGCATTCTTCGGAGTCACCTAGTGCAG,14500 fluorescence intensity (a.u.)
8,CTGTTTGGTTAGTTCTGTACTTCTGTTGCAGGTTATATCACGGAGTCACCTAGTGCAG,9080 fluorescence intensity (a.u.)
9,ACATGCTCTCTTTTGTCACATCCAGGCTCGATTGTTTCCTCGGAGTCACCTAGTGCAG,11300 fluorescence intensity (a.u.)
10,GCTAAAATCTTGCTTAATCTTGCCTGTTTCACTAACGATGCGGAGTCACCTAGTGCAG,8200 fluorescence intensity (a.u.)
11,TGATGGTTCGGTTTTTTGTGCTTTGTACTTTGCAGTCTTCCGGAGTCACCTAGTGCAG,14000 fluorescence intensity (a.u.)
12,CGCCATAAATTCCTTCACTTCAATTTCTTCCTAGCTCAGCCGGAGTCACCTAGTGCAG,10700 fluorescence intensity (a.u.)
13,CTGAATCTGTCAACTCGATCTTCCCTTCTTTCTCTGCAGCCGGAGTCACCTAGTGCAG,8360 fluorescence intensity (a.u.)
14,GGTTACGGCTTTCTGGTGTTGGGGTTCGTATTTGGGCCTGCGGAGTCACCTAGTGCAG,14300 fluorescence intensity (a.u.)
15,CCATTGGTCCCGCTACATCGCCTTCTACTTCGTCCAACATCGGAGTCACCTAGTGCAG,10600 fluorescence intensity (a.u.)
16,TATACGACGCCGTTGACTTTTTAAGATACGTTAGACCATTCGGAGTCACCTAGTGCAG,20300 fluorescence intensity (a.u.)
17,CCCTAGCACCTGTTGACAGAAAACCCTAACCCTGCACACCCGGAGTCACCTAGTGCAG,8480 fluorescence intensity (a.u.)
18,ACACATAAACTTCTAACTTTTCCGTCACATCGTTCCAATTCGGAGTCACCTAGTGCAG,8380 fluorescence intensity (a.u.)
19,CTACTTGTCATCGATCATCATGTTACTGTCGTGGTTTGTCCGGAGTCACCTAGTGCAG,8560 fluorescence intensity (a.u.)
20,TGGCACCAGCCACCAGCACAGTTTTTTCCACGGCATTCTCCGGAGTCACCTAGTGCAG,11100 fluorescence intensity (a.u.)
21,CGTTCTCTGTCTGTCCCGCACTCCCGCCTTTTGCCAAAGCCGGAGTCACCTAGTGCAG,9610 fluorescence intensity (a.u.)
22,GTCTGTGATCCACTTAAGCCGCAAACTACACGTAAGATATCGGAGTCACCTAGTGCAG,10500 fluorescence intensity (a.u.)
23,GTACTGCACTTGGGTTATAACTTCTCGACCTTCAACACTTCGGAGTCACCTAGTGCAG,12200 fluorescence intensity (a.u.)
24,ATATATATATATATATATATATATAAAGCAGAAAGAAATACGGAGTCACCTAGTGCAG,9000 fluorescence intensity (a.u.)
25,TCTGACTGCTTCGTCGCTTTTCTATCATTGCTATTTTGGTCGGAGTCACCTAGTGCAG,9140 fluorescence intensity (a.u.)
26,TCCATCTGGCGAGCAGAGCAGCGGAGGGGAGGGGATCCTGCGGAGTCACCTAGTGCAG,9400 ± 820 fluorescence intensity (a.u.)
27,CCTTCTTTTGTGCTTAATCACACTTCAGTTTAGGTTAATACGGAGTCACCTAGTGCAG,9200 fluorescence intensity (a.u.)

# 2 entries drawn at random from the list so far, as already listed:
row,Sequence,binding signal
19,CTACTTGTCATCGATCATCATGTTACTGTCGTGGTTTGTCCGGAGTCACCTAGTGCAG,8560 fluorescence intensity (a.u.)
18,ACACATAAACTTCTAACTTTTCCGTCACATCGTTCCAATTCGGAGTCACCTAGTGCAG,8380 fluorescence intensity (a.u.)

# (listing goes on)

row,Sequence,binding signal
1,GGGTTGATATATTGATGAATGCTCATATTCCCGATTGATACGGAGTCACCTAGTGCAG,10900 fluorescence intensity (a.u.)
2,TCTTTTGTAGTAAGCTTTCCATTCATATTTTAATTCGTCTCGGAGTCACCTAGTGCAG,8570 fluorescence intensity (a.u.)
3,GCAAAGCAAAGCACCAGGGCAGGGGAGGGGCAGGGAGTTTCGGAGTCACCTAGTGCAG,10400 fluorescence intensity (a.u.)
4,ATGTCAATCTAATGTCACTAACCCACCCGCCATTGATCTCCGGAGTCACCTAGTGCAG,9710 fluorescence intensity (a.u.)
5,CTGCTTGAATCCTTCTCGCTGAGCTGGCCTGCAGCCTTTTCGGAGTCACCTAGTGCAG,9350 fluorescence intensity (a.u.)
6,GCACGCACTCCCCACCTCGCAACCTCGCCTCGGCTCTGCCCGGAGTCACCTAGTGCAG,11500 fluorescence intensity (a.u.)
7,TTTTTACCTAGCTACTTCCTTAATATCCATGCCCACCTAACGGAGTCACCTAGTGCAG,11700 fluorescence intensity (a.u.)
8,ACTGCTGACGGATTTCAGATCACTACTCCTACGCCTTACACGGAGTCACCTAGTGCAG,9150 fluorescence intensity (a.u.)
9,CCGCGCCGTGTGCGCTGCATCTATCCATCGGTCGGCTCGACGGAGTCACCTAGTGCAG,14100 fluorescence intensity (a.u.)
10,TATTGATCTTGCTTCTTGGCCCCTTTACGTCACACGTTGACGGAGTCACCTAGTGCAG,12000 fluorescence intensity (a.u.)
11,GCCAGGGATGGTAATTGGAAGTGAATTTTTCCTTTATTTACGGAGTCACCTAGTGCAG,8230 fluorescence intensity (a.u.)
12,GTTCCGAGCACTCATTTTATACTATCACATTTTTTAAATTCGGAGTCACCTAGTGCAG,10100 fluorescence intensity (a.u.)
13,AAATTCTGTAGTAGTCCACTTCTGTTCCACCCTTTCCCTGCGGAGTCACCTAGTGCAG,8520 fluorescence intensity (a.u.)
14,TTTATCGCTTTTTTGTCCTTGGCAGCCACCACCACCCTGCCGGAGTCACCTAGTGCAG,8320 fluorescence intensity (a.u.)
15,GCTGACCCCGCCTGACTGGCTTCCTTCCCCTTCCACACCTCGGAGTCACCTAGTGCAG,9170 fluorescence intensity (a.u.)
16,GAGGAGATCGATGGGATGGGCGTGTGCTTTTTTTTCATCTCGGAGTCACCTAGTGCAG,10200 fluorescence intensity (a.u.)
17,ATTCCCTTGTTGCTGCTCTAGTAAAAAACATTACAATTATCGGAGTCACCTAGTGCAG,8620 fluorescence intensity (a.u.)
18,CGGGGCTTCCTGGGGCTTCAGTGTGCGCCACTTCTCTCGGCGGAGTCACCTAGTGCAG,8370 fluorescence intensity (a.u.)
19,GCCGTTTGGGATATTTTGCCGTGGTTGGTCTGGTGGATAACGGAGTCACCTAGTGCAG,8680 fluorescence intensity (a.u.)
20,TTTTGTTCTAGGCTCGTCATGTACTAGCTACTTGACCTATCGGAGTCACCTAGTGCAG,10300 fluorescence intensity (a.u.)
21,GGATGGGTCGTATTTCTCACACCTTGGCCTGTTAAGTGCACGGAGTCACCTAGTGCAG,12000 fluorescence intensity (a.u.)
22,TTGGGTTGGGTCTTGGGTTTGGTGGTTTGAATTTGGTGTGCGGAGTCACCTAGTGCAG,13100 fluorescence intensity (a.u.)
23,CGGCGGCGGCGGCGGTATGTGGAGGCGGGGAAGGGGTCTGCGGAGTCACCTAGTGCAG,13300 fluorescence intensity (a.u.)
24,ACATCCATCACTGAATTTGACCCGTTAGCACTTTCACCATCGGAGTCACCTAGTGCAG,11200 fluorescence intensity (a.u.)
25,ACATCAACGTGTCATACACACACAACTTTTCAGTCACATCCGGAGTCACCTAGTGCAG,9010 fluorescence intensity (a.u.)
26,TCACTCATGCAGAGTCACAGCTTGTATAGTTGTAATGCATCGGAGTCACCTAGTGCAG,9000 fluorescence intensity (a.u.)
27,TTTTCAGAGTATTGTCTTGCATAATGCATTTGGGTGTTTCCGGAGTCACCTAGTGCAG,8510 fluorescence intensity (a.u.)
